The target of experiment [1] is T1, testicular expression 10 (TEX10) (human (endogenous in T24)) (UniProt Q9NXF1).
T1 sequence: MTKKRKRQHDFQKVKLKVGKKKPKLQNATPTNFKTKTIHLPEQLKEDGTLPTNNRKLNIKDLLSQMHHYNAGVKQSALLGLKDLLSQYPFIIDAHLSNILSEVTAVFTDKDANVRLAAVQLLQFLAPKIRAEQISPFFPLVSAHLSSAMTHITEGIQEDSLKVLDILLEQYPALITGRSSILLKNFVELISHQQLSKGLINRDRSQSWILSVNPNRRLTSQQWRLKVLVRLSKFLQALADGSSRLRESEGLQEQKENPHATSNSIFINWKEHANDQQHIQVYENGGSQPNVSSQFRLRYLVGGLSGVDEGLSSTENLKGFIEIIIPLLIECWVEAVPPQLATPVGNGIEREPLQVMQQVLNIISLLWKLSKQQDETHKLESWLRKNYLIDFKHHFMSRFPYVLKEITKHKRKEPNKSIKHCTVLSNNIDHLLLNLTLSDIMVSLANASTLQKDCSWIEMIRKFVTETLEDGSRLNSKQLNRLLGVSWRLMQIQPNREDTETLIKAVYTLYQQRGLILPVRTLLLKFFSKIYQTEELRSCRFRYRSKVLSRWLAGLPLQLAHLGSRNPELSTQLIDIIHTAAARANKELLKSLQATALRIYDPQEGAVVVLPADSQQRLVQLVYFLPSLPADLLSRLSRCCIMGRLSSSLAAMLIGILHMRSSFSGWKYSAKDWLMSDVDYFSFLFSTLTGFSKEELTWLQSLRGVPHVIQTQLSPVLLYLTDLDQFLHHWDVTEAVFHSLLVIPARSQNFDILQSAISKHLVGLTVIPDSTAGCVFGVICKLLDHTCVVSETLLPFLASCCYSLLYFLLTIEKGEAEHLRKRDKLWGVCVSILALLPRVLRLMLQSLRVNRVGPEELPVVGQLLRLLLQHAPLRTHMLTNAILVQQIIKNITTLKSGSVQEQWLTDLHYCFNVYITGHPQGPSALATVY
Put plainly: co-IP; endogenous proteins; T24 cell extract in modified RIPA lysis buffer (50 mM Tris-HCl pH 7.4, 150 mM NaCl, 1% Nonidet P-40, 0.25% sodium deoxycholate, 1 mM EDTA); primary antibody (anti-TEX10 or anti-XRCC6) or control IgG overnight at 4°C, protein A/G magnetic beads 3 h, three washes, immunoblot.

Chains of the proteins cited; added tags and fusions are not shown.
UniProt P12956: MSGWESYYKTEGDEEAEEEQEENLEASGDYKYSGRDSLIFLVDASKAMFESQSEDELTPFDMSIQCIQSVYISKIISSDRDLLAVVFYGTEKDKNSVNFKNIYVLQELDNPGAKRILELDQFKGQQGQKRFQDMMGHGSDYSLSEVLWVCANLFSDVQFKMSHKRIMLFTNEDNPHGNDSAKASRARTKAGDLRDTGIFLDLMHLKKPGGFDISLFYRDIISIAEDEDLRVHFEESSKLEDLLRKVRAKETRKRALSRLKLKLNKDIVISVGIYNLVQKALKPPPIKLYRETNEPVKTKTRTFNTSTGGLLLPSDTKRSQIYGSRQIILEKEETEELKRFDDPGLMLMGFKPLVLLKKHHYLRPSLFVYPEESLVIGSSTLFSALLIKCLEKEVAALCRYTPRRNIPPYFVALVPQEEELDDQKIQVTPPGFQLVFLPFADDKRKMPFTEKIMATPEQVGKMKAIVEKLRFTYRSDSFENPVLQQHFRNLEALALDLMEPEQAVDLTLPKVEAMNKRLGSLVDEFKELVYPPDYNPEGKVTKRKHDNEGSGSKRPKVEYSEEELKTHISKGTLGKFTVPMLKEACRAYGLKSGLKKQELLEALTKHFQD

Experiment [2] concerns the target XRCC6/Ku70 (human (endogenous in T24)) (UniProt P12956). The experiment is described as above.

The text below walks through data of paper PMC8712183.

Results are given in words; binding and its absence hold for the method and conditions named. Binding seen in cells or lysates may run through a third protein. Some results given as binding are weak or reduced against the parent protein; the word gives no strength.

As to XRCC6/Ku70 (from UniProt P12956 1-609), the binding result in experiment [1] is “binds”.

B1: testicular expression 10 (TEX10) (protein, UniProt Q9NXF1 1-929)
chain: T1 sequence
For the molecule B1, the binding entry in experiment [2] is “binds”.
